This is one part of the list.
Columns and labels:
Assay in all cases: protein microarray (ProtoArray v5.0), streptavidin-Alexa Fluor 647
Details in all cases: 3'-biotin; 20 mM Tris (pH 7.5), 5 mM MgCl2, 100 mM KCl, 0.1% Tween-20, A/T-rich and random oligonucleotide blockers; temperature not stated; high values mean tight binding
METTL2B (human) = tested on: METTL2B (human)
METTL6 (human) = tested on: METTL6 (human)
METTL8 (human) = tested on: METTL8 (human)
METTL9 (human) = tested on: METTL9 (human)
MFGE8 (human) = tested on: MFGE8 (human)
MFN1 (human) = tested on: MFN1 (human)
MGAT4B (human) = tested on: MGAT4B (human)
MGC10334 (human) = tested on: MGC10334 (human)
MGC10600 (human) = tested on: MGC10600 (human)
MGC10955 (human) = tested on: MGC10955 (human)

GGGAGGCTGAGGCAGG [G4-1 biotinylated (PQS2)]
binding signal (METTL2B (human)): -0.335 z-score
binding signal (METTL6 (human)): -0.295 z-score
binding signal (METTL8 (human)): -0.291 z-score
binding signal (METTL9 (human)): -0.331 z-score
binding signal (MFGE8 (human)): -0.347 z-score
binding signal (MFN1 (human)): -0.297 z-score
binding signal (MGAT4B (human)): -0.333 z-score
binding signal (MGC10334 (human)): -0.328 z-score
binding signal (MGC10600 (human)): -0.33 z-score
binding signal (MGC10955 (human)): -0.327 z-score
